Paper PMC4068993, “Chlamydia pneumoniae CopD Translocator Protein Plays a Critical Role in Type III Secretion (T3S) and Infection” (PLoS ONE, 2014)
These are yes or no findings as the source states them, for the method shown. Some results given as binding are weak or reduced against the parent protein; the word gives no strength. Where a sequence is shown, tags or fusion partners need not be part of it.

Target: Full length His-CopD (Chlamydia pneumoniae CWL029) (UniProt Q9Z798)
Assay: SEC; His-CopD and LcrH_1-S-tag, size exclusion chromatography in the presence of 0.1% Triton X-100; data not shown; both purified

B1: Full length His-CopD (natural protein)
chain: MTSGVSGSSSQDPTLAAQLAQSSQKAGNAQSGHDTKNVTKQGAQAEVAAGGFEDLIQDASAQSTGKKEATSSTTKSSKGEKSEKSGKSKSSTSVASASETATAQAVQGPKGLRQNNYDSPSLPTPEAQTINGIVLKKGMGTLALLGLVMTLMANAAGESWKASFQSQNQAIRSQVESAPAIGEAIKRQANHQASATEAQAKQSLISGIVNIVGFTVSVGAGIFSAAKGATSALKSASFAKETGASAAGGAASKALTSASSSVQQTMASTAKAATTAASSAGSAATKAAANLTDDMAAAASKMASDGASKASGGLFGEVLNKPNWSEKVSRGMNVVKTQGARVASFAGNALSSSMQMSQLMHGLTAAVEGLSAGQTGIEVAHHQRLAGQAEAQAEVLKQMSSVYGQQAGQAGQLQEQAMQSFNTALQTLQNIADSQTQTTSAIFN
notes: CopD (Cpn0808), Chlamydia pneumoniae CWL029, 444 amino acids (44.5 kDa); Eluted from SEC as decamer, tetramer and monomer; also called Cpn0808; source: E. coli Rosetta pLysS, co-expressed with LcrH_1-S-tag (pET-DUET), purified (Ni-NTA); not shown: 6×His, N-terminal, kept
For B1, the binding was “binds”.
